Laboratory results published in PMC7504119.
No constants are given. Whether binding was seen depends on the method and setting. Binding seen in cells or lysates may run through a third protein. Some results given as binding are weak or reduced against the parent protein; the word gives no strength.

Amino acid sequences for entries named in this document (tags omitted). Residues count along the entry.
UniProt P25705, residues 44-553: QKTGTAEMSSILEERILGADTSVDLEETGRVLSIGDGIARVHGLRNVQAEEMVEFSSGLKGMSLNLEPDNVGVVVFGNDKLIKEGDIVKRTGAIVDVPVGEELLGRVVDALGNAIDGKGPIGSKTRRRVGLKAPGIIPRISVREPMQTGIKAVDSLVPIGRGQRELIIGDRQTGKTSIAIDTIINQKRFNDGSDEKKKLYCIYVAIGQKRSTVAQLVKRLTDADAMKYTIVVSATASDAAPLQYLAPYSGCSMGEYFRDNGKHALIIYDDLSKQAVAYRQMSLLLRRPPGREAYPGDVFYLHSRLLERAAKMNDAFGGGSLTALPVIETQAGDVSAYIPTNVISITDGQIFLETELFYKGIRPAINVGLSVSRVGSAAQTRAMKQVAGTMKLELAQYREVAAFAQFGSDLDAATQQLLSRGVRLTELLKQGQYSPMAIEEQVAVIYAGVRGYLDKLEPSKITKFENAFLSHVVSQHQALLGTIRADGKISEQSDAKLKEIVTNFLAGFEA

Molecular target: endogenous ATP5A (HEK293) (human (endogenous in HEK293)) (UniProt P25705)
Test: co-IP; endogenous ATP5A immunoprecipitated from HEK293 with anti-ATP5A on protein G/A beads, immunoblot for Sestrin2; cells treated with 10 μM CCCP 2 h, 500 μM CuSO4 6 h or 400 μM H2O2 6 h

B1: endogenous Sestrin2 (HEK293) (protein, UniProt P58004 1-480)
chain: MIVADSECRAELKDYLRFAPGGVGDSGPGEEQRESRARRGPRGPSAFIPVEEVLREGAESLEQHLGLEALMSSGRVDNLAVVMGLHPDYFTSFWRLHYLLLHTDGPLASSWRHYIAIMAAARHQCSYLVGSHMAEFLQTGGDPEWLLGLHRAPEKLRKLSEINKLLAHRPWLITKEHIQALLKTGEHTWSLAELIQALVLLTHCHSLSSFVFGCGILPEGDADGSPAPQAPTPPSEQSSPPSRDPLNNSGGFESARDVEALMERMQQLQESLLRDEGTSQEEMESRFELEKSESLLVTPSADILEPSPHPDMLCFVEDPTFGYEDFTRRGAQAPPTFRAQDYTWEDHGYSLIQRLYPEGGQLLDEKFQAAYSLTYNTIAMHSGVDTSVLRRAIWNYIHCVFGIRYDDYDYGEVNQLLERNLKVYIKTVACYPEKTTRRMYNLFWRHFRHSEKVHVNLLLLEARMQAALLYALRAITRYMT
binding: binds
